About 780 (0.22%) of roughly 360,000 compounds were called active. Inconclusive results, whose numbers are uncertain, are shown with a selection of clear calls. Rule as the data show it: active = inhibition above about 35% (passing the limit was not always enough); inconclusive = no clear call, values can overlap the other calls.
What follows are molecules tested on Botulinum neurotoxin type F light chain protease (Clostridium botulinum) (assay: BoNT/F light chain protease inhibitors, primary screen, biochemical, flow cytometry, MLPCN library (AID 588497; also: plate controls were buffer without enzyme for full effect and enzyme alone for no effect)). Details: Multiplex microsphere protease cleavage assay, at 10 µM, active compounds read high.

Structure (SMILES)	inhibition
O=C(NC1CCCC1)C(c1cccnc1)N(Cc1ccccc1)C(=O)c1csnn1 (stereo not drawn)	active: 43.4%
NNC(=O)c1cc(C23CC4CC(CC(C4)C2)C3)nc2ccccc12	inconclusive: -30%
Cc1noc(C)c1CSCC(=O)Nc1ccccc1N1CCCCC1	inconclusive: 5.6%
COCCOC(=O)c1c(N)n(Cc2ccccc2)c2nc3ccccc3nc12	inconclusive: -5.4%
COc1ccc(N/C(=N/c2nc(C)cc(C)n2)NC(=O)c2ccccc2)cc1	inconclusive: -10.5%
COc1cc(/C=N/NC(=O)c2ccc3c(c2)OCCO3)cc(Cl)c1O	inactive: 1.2%
O=C(c1c(F)cccc1F)N1CCC(O)(c2cccnc2)CC1	inconclusive: -9.7%
Cc1ccccc1CC(=O)Nc1cc(C(C)(C)C)on1	inconclusive: -41.7%
O=C(NNC(=O)c1ccc(Oc2ccc(C3SCCS3)cc2)o1)c1ccc(Cl)cc1	inconclusive: 110%
COc1cccc(/C=N\NC(=O)c2sc(N)nc2C)c1OC	inconclusive: 16.6%
CCOc1ccc(N=C2SCC(=O)N2CC)cc1	inconclusive: 19.5%
C[n+]1ccccc1/C=C/c1cc(Br)ccc1O	inconclusive: -99.2%
O=C(c1ccc(C(F)(F)F)cc1)c1c[nH]c(C(=O)NCCCn2ccnc2)c1	inactive: 0.6%
COc1ccc(CNC(=O)N[C@@H](CC(C)C)C(=O)O)cc1OC	inactive: -15.2%
O=C(Nc1ccc2c(c1)OCCO2)C(c1ccnc2ccccc12)N1CCN(C/C=C/c2ccccc2)CC1 (stereo not drawn)	inactive: 4.4%
Oc1ccccc1/C=N/n1c(COc2ccccc2)n[nH]c1=S	inconclusive: -16.6%
CCC(C)(C)C1CCc2[nH]nc(C(=O)NN)c2C1 (stereo not drawn)	inconclusive: 11.1%
O=[N+]([O-])c1ccc(N2CCCCCC2)c2nonc12	active: 115%
O=C(Nc1ccccc1)c1cccc(=O)o1	inconclusive: -54.7%
O=C(Oc1ccc(Cl)cc1)c1ccc2nccnc2c1	inconclusive: -11.2%
CCC[N+]1(CC#CC(O)(c2ccccc2)C2CCCCC2)CCCCC1 (stereo not drawn)	inconclusive: 13.1%
COc1cccc(CNCc2ccccc2Br)c1OC	inconclusive: -39%
CCOC(=O)c1ccccc1NC(=O)c1cc2sccc2n1C	inactive: 1.7%
Cc1ccc(NS(=O)(=O)c2cccc(C(=O)NCC3CCCO3)c2)cc1 (stereo not drawn)	inconclusive: -0.3%

Structure (SMILES)	inhibition
O=C1CCc2cc(S(=O)(=O)Nc3ccc(F)cc3)ccc2N1	inconclusive: -10.8%
CN(C)Cc1c(C(=O)N/N=C/c2ccncc2)nnn1-c1nonc1N	active: 42.1%
Cc1cc(C(=O)Nc2ccccc2)nn1C(C)(C)C	inconclusive: -28.9%
COc1ccc(C(=O)N2CCOC2CNC(=O)C(=O)NCCc2ccccc2OC)cc1 (stereo not drawn)	inactive: -6.1%
CCOC(=O)Cc1csc(NS(=O)(=O)c2cccc([N+](=O)[O-])c2)n1	inconclusive: 14.8%
O=C(NCCSc1ccccc1)c1ccccc1F	inconclusive: 42.5%
COc1cccc(C(=O)Nc2ccc(NC(=O)c3cc4ccccc4o3)c(OC)c2)c1	inconclusive: 4.2%
CCCn1nc(C(=O)NNC(=O)Cc2ccc(S(=O)(=O)N3CCOCC3)s2)c2ccccc2c1=O	inconclusive: 33.2%
O=C(O)CS(=O)(=O)c1ccc(C(F)(F)F)cn1	inactive: -8.6%
COc1cccc(NC(=O)CSc2nnc(Cc3cccs3)n2-c2ccc(C)cc2)c1	inactive: 6.6%
Nc1ccc(Sc2ccc([N+](=O)[O-])cc2)cc1	inactive: -0.5%
Cc1ccc(OCC(=O)NCCCNC(=O)c2ccncc2)cc1	inactive: -14.3%
Cc1c(N2C(=O)CS/C2=N\N=C\c2ccccc2O)c(=O)n(-c2ccccc2)n1C	inactive: -2.9%
COCCN1CC(=O)N2C(c3cccc(OC)c3)c3[nH]c4ccccc4c3C[C@H]2C1=O (stereo partly drawn)	inactive: -11.3%
CCCn1cnc2sc(C(N)=O)c(C)c2c1=O	inconclusive: 13%
COc1ccc(N2CCN(C3CCCN(Cc4ccc(F)cc4Cl)C3)CC2)cc1 (stereo not drawn)	inconclusive: -11.3%
COCCNC(=S)N(CCCN(C)C)Cc1cc2cc3c(cc2[nH]c1=O)OCCO3	inconclusive: 6.2%
CCn1c(SCC(=O)N/N=C/c2c[nH]c3ccccc23)nnc1-c1ccc(C(C)(C)C)cc1	inactive: 1.6%
c1ccc(-c2nc3ccccn3c2-c2ccccc2)cc1	inconclusive: 34.4%
COc1ccc(S(=O)(=O)N2CCCCC2)cc1NC(=O)CCC(=O)N1CCC(c2ccccc2)=N1	inactive: -0.9%
Cc1ccc(-c2csnn2)cc1	inconclusive: -118%
O=C1C=CN(Cc2ccccc2)C(c2ccccc2)C1 (stereo not drawn)	inactive: 4.4%
CC(C)(C)N(Cc1ccccc1)C(=O)COC(=O)C1CC1	inactive: -8%
CC(C)(C)C(=O)NNC(=O)c1cc(C(C)(C)C)nn1Cc1ccccc1	inconclusive: -16.6%

Grouped by structure: the compounds so far containing a CF3 group (2)
Structure (SMILES)	inhibition
O=C(c1ccc(C(F)(F)F)cc1)c1c[nH]c(C(=O)NCCCn2ccnc2)c1	inactive: 0.6%
O=C(O)CS(=O)(=O)c1ccc(C(F)(F)F)cn1	inactive: -8.6%

Later entries.

Structure (SMILES)	inhibition
O=C(NCc1ccco1)c1ccc(S(=O)(=O)c2cccc(S(=O)(=O)N3CCOCC3)c2)cc1	active: 38.2%
O=C(COC(=O)COc1ccc2ccccc2c1)NCC(F)(F)F	active: 37%
COc1cc2c(cc1OC)C(c1ccc(O)cc1)NCC2 (stereo not drawn)	inconclusive: 8.1%
O=C(O)c1cncc(C#Cc2ccccc2)c1	inconclusive: -9%
CCOC(=O)C(N)CSC1CC(=O)N(CCc2ccccc2)C1=O (stereo not drawn)	inconclusive: 0.6%
CCCN(CCC)CCCNS(=O)(=O)c1ccc2c(c1)oc(=O)n2C	inactive: -10.8%
CC(=O)Nc1cc2cc(NS(=O)(=O)c3ccc(C)cc3)ccc2oc1=O	inconclusive: -40.7%
CCC(C)NCCOCCOc1ccc(Cl)cc1Br (stereo not drawn)	active: 35.1%
CCOc1ccccc1/C=N/n1c(C2CCCCC2)n[nH]c1=S	inconclusive: 9.2%
CCn1c(SCC(=O)Nc2ccc(C)cc2)nc2nc3c(cc2c1=O)COC(C)(C)C3	inconclusive: -33.3%
CCn1ncc(CNC(=O)C2(C)CC2(Cl)Cl)c1C (stereo not drawn)	inactive: 12.1%
CCN(CC(=O)Nc1ccccc1C(F)(F)F)C(=O)CN1C(=O)NC2(CCCC2)C1=O	inconclusive: -6.5%
Cc1ccccc1N(Cc1ccccc1F)S(C)(=O)=O	inactive: -1%
FC(F)(F)c1ccccc1-n1c(-c2cnccn2)n[nH]c1=S	inconclusive: -22.9%
COc1ncccc1-c1cc2nc(NCCNC(C)=O)n(C)c(=O)c2s1	inactive: 6.3%
COc1cc(/C=C2\C(=N)N3N=C(C)SC3=NC2=O)cc(OC)c1OCCOc1ccccc1C	active: 55.3%
CN(C)c1cc(-c2ccc(Cl)cc2Cl)oc(=O)c1Cl	inconclusive: -7.2%
O=C1N=C(N2CCCCC2)SC1=C1CCCCC1	inactive: 11%
CCCCCC1CC(CC(=O)Nc2ccc([N+](=O)[O-])cc2)OC1=O (stereo not drawn)	inconclusive: -16.9%
Cc1ccnc(NC(=O)c2ccc(COc3c(F)c(F)cc(F)c3F)o2)c1	inconclusive: -30.3%
COCCCNC(=O)CCn1c(=O)c2ccccc2n(CC(=O)Nc2ccc(C)cc2C)c1=O	inactive: -1.8%
N#C/C(=C\c1ccc(Cl)cc1)C(=O)Nc1cccnc1	inconclusive: 156%
c1ccc(OCc2noc(CN3CCC(C4CCCCC4)C3)n2)cc1 (stereo not drawn)	inactive: -3.2%
O=C(CSc1nccc(=O)[nH]1)Nc1ccc(Oc2ccccc2)cc1	inconclusive: -7%

Five compounds drawn at random from the list so far:
Structure (SMILES)	inhibition
CC(C)(C)C(=O)NNC(=O)c1cc(C(C)(C)C)nn1Cc1ccccc1	inconclusive: -16.6%
O=C(NNC(=O)c1ccc(Oc2ccc(C3SCCS3)cc2)o1)c1ccc(Cl)cc1	inconclusive: 110%
COc1cc(/C=N/NC(=O)c2ccc3c(c2)OCCO3)cc(Cl)c1O	inactive: 1.2%
COc1ccc(N/C(=N/c2nc(C)cc(C)n2)NC(=O)c2ccccc2)cc1	inconclusive: -10.5%
COCCN1CC(=O)N2C(c3cccc(OC)c3)c3[nH]c4ccccc4c3C[C@H]2C1=O (stereo partly drawn)	inactive: -11.3%

Remaining list, next part:

Structure (SMILES)	inhibition
O=P(c1ccccc1)(c1ccccc1)C(O)c1ccc(Br)cc1 (stereo not drawn)	inconclusive: -10.7%
COc1ccc(CCNC(=O)C2CCN(C(=O)c3ccc(Br)cc3)CC2)cc1	inconclusive: -2.3%
Cc1cnc(C(=O)OCC(=O)N(CC(C)C)C2CCS(=O)(=O)C2)cn1 (stereo not drawn)	inactive: 3%
Cc1nc(C(=O)N2CCC(n3nccc3NC(=O)Nc3ccccc3Cl)CC2)cs1	inactive: -5.3%
COc1ccc(/C=N/n2c(=O)[nH]c3c([nH]c4ccc(Cl)cc43)c2=O)cc1CN1CCCCC1	inconclusive: -5.4%
COc1ccc(-c2c(-c3cc(OC)cc(OC)c3)n(C)c3ccc(-c4cnc(OC)nc4)cc23)cc1	inactive: 1.7%
COc1ccc(NC(=O)C2CCCO2)c(OC)c1 (stereo not drawn)	inconclusive: -23.4%
O=C(CCl)N(CCCNC(=O)C(F)(F)F)c1ccc([N+](=O)[O-])cc1	inconclusive: -44.1%
Nc1ccc2c(c1)oc1ccccc12	inactive: 0.9%
COc1ccc(OCCCC(=O)Nc2nccs2)cc1	inconclusive: -29.9%
CN(C)c1ccc(CNC(=O)C2(C)Cc3c(-c4ccccc4)ccnc3O2)cc1 (stereo not drawn)	inactive: 1%
CCc1cc(=O)oc2c(C)c(OCC(=O)N3CCC[C@@H]3C(=O)O)ccc12	inactive: 8.5%
C1CC2NCCC3NCCC(N1)N32 (stereo not drawn)	inconclusive: -31%
C=CCn1c(C(CC)CC)nc2ccccc21	active: 35.8%
Cn1ccc2c(-c3ccc(F)cc3)cc3c(c21)C1CCC3C1 (stereo not drawn)	inactive: -12.4%
CC1(C(=O)NCC2CCCCC2)CCN1C(=O)Cc1ccc(-c2ccccc2)cc1 (stereo not drawn)	inactive: -0.7%
CSC1=NCCN1C(=O)c1c(-c2c(F)cccc2Cl)noc1C	inconclusive: 78.5%
CCC/C=C/c1ccc(CN2C(C)C(=O)N(Cc3cn(CCC4OCCCO4)nn3)CCS2(=O)=O)cc1 (stereo not drawn)	inactive: -2.1%
Fc1cccc(CN2CCSCC2)c1	inconclusive: -28.4%
Cc1ccccc1C(=O)Oc1cccc2c(O)cccc12	inconclusive: -14%
CCC(C)NC(=O)c1ccc(CNS(=O)(=O)c2ccc3c(c2)C(C)(C)C(=O)N3C)cc1 (stereo not drawn)	inactive: -8%

Source: PubChem BioAssay AID588497 (NMMLSC, 2011)
